Laboratory results from US11604141B2, “Zinc-selective fluorescent probes for emission-ratiometric imaging” (Georgia Tech Research Corporation, priority 2017, dated 2023).
At least one structure is not confirmed: it was looked up by name or label, or the drawing left a doubt.

Columns and labels:
[1] = Determination of fluorescence quantum yields (referenced to quinine sulfate); assay type: physicochemical; settings: aqueous buffer pH 7.0, 10 mM PIPES, 0.1 M KCl; for ΦF fluorescence quantum yield, Zn(II)-saturated form: Zn(II)-bound; for ΦF fluorescence quantum yield, free form: free probe
Experimental: Determination of Fluorescence Quantum Yields. Fluorescence quantum yields of 1, 2, 3b and chromis-2 (4) were determined in aqueous buffer (10 mM PIPES, 0.1 M KCl) at pH 7.0 by a 4-point measurement over an OD range of 0.1-0.4 using a […], with fluorimeter excitation at 365 nm. For probes 3b and chromis-2, the solutions containing the free forms were supplemented with 20 μM EDTA (from a 30 mM stock solution in diH2O) to sequester adventitious Zn(II), whereas to determine the Zn(II)-bound forms, the solutions were supplemented with 20 μM ZnSO4.7H2O to ensure complete saturation of the fluorophore. Fluorescence quantum yields for all fluorophores were determined using quinine sulfate (Df=0.546 in 1.0 N H2SO4) as a fluorescence standard.^2 To determine the quantum yield of 3a, single-point measurements were performed in aqueous buffer (10 mM PIPES, 0.1 M KCl, pH 7.0) supplemented with 100 μM 4:1 DMPC:DMPG liposomes and at a probe concentration of 2 μM. The quantum yields were also referenced to quinine sulfate with an OD matching that of 3a (2 μM) in liposomes.

[2] = Steady-state absorption and fluorescence spectroscopy, molar ratio titration with Zn(II); assay type: physicochemical
Experimental: General Spectroscopic Methods. All buffers and stock solutions used for spectroscopic measurements were prepared using either HPLC-grade water (JT Baker) or 18.2 MΩ.cm Mili-Q water and filtered through a 0.2 μm filter to remove interfering dust particles or fibers. UV-Vis measurements were performed on a Varian Cary Bio50 spectrophotometer with a constant temperature accessory (Peltier) at 25° C. Fluorescence measurements were performed with a PTI fluorimeter equipped with a 75 W xenon arc lamp excitation source and a photomultiplier detection system (PMT voltage was 1100 V for all experiments). Fluorescence spectra were corrected for the spectral response of the detection system and for the spectral irradiance of the excitation source (via a calibrated photodiode). For all experiments, both UV-Vis and fluorescence, a 1-cm path length quartz cuvette was used, except for quantum yield determinations, which were performed with a 10-cm path length quartz cuvette for absorbance measurements.
Molar Ratio Titration of Probe 3b with Zn(II). […] After each aliquot, the solution was equilibrated for 30 seconds by magnetic stirring, and an absorbance (spectral window: 250-500 nm) (FIG. 14A) and fluorescence spectrum (excitation: 361 nm, spectral window: 380-700 nm) (FIG. 14B) were acquired.
Molar Ratio Titration of Chromis-2 with Zn(II). […] After each aliquot, the solution was equilibrated for 30 seconds by magnetic stirring, and an absorbance (spectral window: 250-500 nm) and fluorescence spectrum (excitation: 361 nm, spectral window: 380-700 nm) were acquired.

[3] = Analyte selectivity, fluorescence response to divalent metal cations
[4] = tested on: labile Zn(II) pools in live NIH 3T3 mouse fibroblasts; experiment: Ratiometric TPEM imaging of labile Zn(II) in live cells; assay type: cell-based
Experimental: FIG. 25A-25B. Ratiometric imaging of labile Zn(II) pools in live NIH 3T3 mouse fibroblasts with chromis-2 by TPEM (excitation at 720 nm). (FIG. 25A) Left: Phase contrast image (DIC) and fluorescence intensity images acquired with 425-462 nm (BP1) and 478-540 nm (BP2) bandpass filters, respectively. Right: Intensity ratio image with R=BP2/BP1. (FIG. 25B) Left: Ratio images (BP2/BP1) prior (at 3 min) and after addition of 50 μM ZnSO4 and 5 μM pyrithione (at 9 min). […] Right: Time course of the average intensity ratio change for the ROI indicated with a white circle in the left panel. The asterisks indicate time points for the respective ratio images shown to the left. Scale bars: 40 μm.
To evaluate the Zn(II)-dependent ratiometric response of chromis-2 within the chemical complexity of a live cell, we performed a perfusion experiment with NIH 3T3 mouse fibroblasts as model system (FIG. 25). […] Scanning fluorescence micrographs were acquired with excitation at 720 nm, and the integrated emission intensity was simultaneously collected through two band pass filters between 425-462 nm and 478-540 nm. […] Although the fluorescence intensity distribution appears uneven, including distinct punctate localizations, the corresponding ratio-image indicates a rather even fractional saturation with an average ratio R of 0.64±0.2.

[5] = Fluorescence solvent deuterium-isotope studies (D2O vs H2O buffer); assay type: physicochemical; settings: 10 mM PIPES, 0.1 M KCl, pH/D 7.0, 25° C.
Experimental: Fluorescence Deuterium-Isotope Studies of Compounds 1 & 2. Comparison of the fluorescence intensities of compounds 1 and 2 were conducted in deuterated and non-deuterated buffer (10 mM PIPES, 100 mM KCl, pH/D 7.0, 25° C.). A 3.0-mL solution of aqueous buffer was supplemented with 10 μM of each compound (from 3 mM stock solutions in H2O), and after thorough mixing via magnetic stirring, fluorescence spectra of 1 were acquired over the spectral window of 380-700 nm with excitation at […] and analogous fluorescence spectra of 2 were acquired over the spectral window of 380-650 nm with excitation at […].
Fluorescence Comparison of 3b and chromis-2 (4). Fluorescence comparison measurements of 3b and chromis-2 were conducted in deuterated and non-deuterated buffer (10 mM PIPES, 100 mM KCl, pH/D 7.0, 25° C.). A quartz cuvette with a 1-cm path length containing 3.0 mL of aqueous buffer was supplemented with 5 μM 3b (from a 3 mM stock solution in H2O), and after a 30-second equilibration via magnetic stirring, a fluorescence spectrum was acquired over the spectral window of 380-700 nm with excitation at 361 nm. The probe was then saturated with 5 μM ZnSO4.7H2O (from a 3 mM stock solution in H2O), and a fluorescence spectrum was acquired. This was repeated for 3b in deuterated buffer, but with supplementation of 5 μM ZnSO4.7H2O from a 3 mM stock solution in D2O. […]

In the case of `COc1ccc(-c2cnc(-c3cccc(CN(Cc4ncccn4)Cc4ncccn4)n3)s2)cc1` [chromis-2], the “ΦF fluorescence quantum yield, Zn(II)-saturated form” value [1] is reported as 0.69, the “ΦF fluorescence quantum yield, free form” value [1] is reported as 0.45 and the “ε at absorbance maximum, Zn(II)-bound form” value ([2]; Zn(II)-bound form, 368 nm) is reported as 20,800 M^−1.cm^−1. For the same compound, the “Em λmax, Zn(II)-saturated form” value ([2]; Zn(II)-bound, pH 7.0) was 515 nm, the “Abs λmax, Zn(II)-bound form” value ([2]; Zn(II)-bound, pH 7.0, 10 mM PIPES, 0.1M KCl, 25° C.) was 368 nm and the “blue-shift of emission relative to chromis-1, Zn(II)-saturated form” value ([2]; Zn(II)-saturated form) was 5 nm. The “blue-shift of emission relative to chromis-1, free form” value ([2]; free form) was 19 nm, the “ε at absorbance maximum, free form” value ([2]; free form, 348 nm) was 23,400 M^−1.cm^−1 and the “Em λmax, free form” value ([2]; free probe, pH 7.0) was 465 nm. The “ε molar extinction coefficient, free form” value ([2]; free probe, pH 7.0) was 2.34 10^4 M^−1cm^−1, the “Abs λmax, free form” value ([2]; free probe, pH 7.0, 10 mM PIPES, 0.1M KCl, 25° C.) was 348 nm and the “spectral shift of absorbance maximum upon binding of Zn(II)” value ([2]; free to Zn(II)-bound) was 20 nm. The “shift of emission maximum upon Zn(II) saturation” value ([2]; free to Zn(II)-saturated) was 50 nm, the “aggregation in aqueous buffer” value ([2]; spectral overlap experiments under dilute and concentrated conditions) was “confuted any potential aggregation” and the “fluorescence response to Mn(II)” value ([3]; Mn(II), outcompeted by 1 molar equivalent of Zn(II)) was “partial fluorescence quenching”. The “fluorescence response to divalent transition metal ions except Zn(II) and Mn(II)” value ([3]; biologically relevant divalent transition metal ions, pH 7.0) was “quantitative quenching”, the “fluorescence response to Ca(II)” value ([3]; millimolar Ca(II)) was “slight increase” and the “fluorescence response to Mg(II)” value ([3]; millimolar concentrations of Mg(II)) was “did not elicit a change in fluorescence”. For the same compound, the “cell entry and localisation” value ([4]; NIH 3T3, bright fluorescence throughout cytoplasm, excluded from nuclei) was “readily entered cells” and the “dynamics of Zn(II)-binding and release in cells” value ([4]; NIH 3T3, intensity ratio vs. time) was “within a few seconds”.
With `COC(=O)c1ccnc(CN(Cc2cc(C(=O)OC)ccn2)Cc2cccc(-c3ncc(-c4ccc(OC)cc4)s3)n2)c1` [compound 3a] the “balance of emission intensities of free and metal-bound fluorophore” value ([2]; in liposomes, excitation at the isosbestic point, compared to 3b) was “more balanced emission intensities”.
For `COc1ccc(-c2cnc(-c3cccc(CN(Cc4cc(C(=O)O)ccn4)Cc4cc(C(=O)O)ccn4)n3)s2)cc1` [compound 3b], the “ΦF fluorescence quantum yield, Zn(II)-saturated form” value [1] was 0.61, the “ΦF fluorescence quantum yield, free form” value [1] was 0.25 and the “increase in fluorescence intensity in D2O relative to H2O” value [5] was 10%.
